Source: PMC7990213
No constants are given. Whether binding was seen depends on the method and setting.

Protein sequences, listed by entry. Tags and fused reporters are not part of them.
UniProt P0C2J9: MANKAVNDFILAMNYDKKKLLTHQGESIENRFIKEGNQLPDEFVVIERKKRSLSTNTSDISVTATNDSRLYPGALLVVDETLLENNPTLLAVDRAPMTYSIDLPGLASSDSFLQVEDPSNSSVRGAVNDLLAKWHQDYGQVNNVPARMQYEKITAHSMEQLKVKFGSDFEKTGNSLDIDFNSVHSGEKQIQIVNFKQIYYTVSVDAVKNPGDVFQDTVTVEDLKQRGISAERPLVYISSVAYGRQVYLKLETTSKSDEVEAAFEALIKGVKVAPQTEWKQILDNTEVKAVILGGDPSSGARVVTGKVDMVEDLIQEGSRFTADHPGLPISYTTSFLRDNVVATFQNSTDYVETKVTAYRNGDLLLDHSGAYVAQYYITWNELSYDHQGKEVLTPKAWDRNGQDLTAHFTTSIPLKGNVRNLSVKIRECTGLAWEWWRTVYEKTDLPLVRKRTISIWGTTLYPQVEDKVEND
UniProt P68363: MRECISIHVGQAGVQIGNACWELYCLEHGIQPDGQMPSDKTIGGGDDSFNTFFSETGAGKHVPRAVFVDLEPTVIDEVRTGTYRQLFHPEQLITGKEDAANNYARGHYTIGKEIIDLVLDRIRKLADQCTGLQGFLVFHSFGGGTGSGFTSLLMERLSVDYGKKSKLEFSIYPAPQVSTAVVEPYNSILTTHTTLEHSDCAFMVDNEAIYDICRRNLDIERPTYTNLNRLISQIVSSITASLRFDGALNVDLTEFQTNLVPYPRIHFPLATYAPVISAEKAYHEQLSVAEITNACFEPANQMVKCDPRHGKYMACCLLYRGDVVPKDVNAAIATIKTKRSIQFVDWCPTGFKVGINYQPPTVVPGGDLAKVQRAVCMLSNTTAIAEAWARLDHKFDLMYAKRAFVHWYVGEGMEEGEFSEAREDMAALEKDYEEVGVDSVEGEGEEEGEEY

Molecular target: His-tagged pneumolysin (Ply) (Streptococcus pneumoniae) (UniProt P0C2J9)
Assay: pull-down; both purified

α-tubulin-1B chain (purified recombinant) (from UniProt P68363 1-451)
binding: no binding (tested: 2 μM)
